Experimental data from the supplement of paper PMC11237882.
This is one part of the list. Values are worked out from sequencing counts and are noisy.

T1: Homer1 EVH1 domain
T1 chain: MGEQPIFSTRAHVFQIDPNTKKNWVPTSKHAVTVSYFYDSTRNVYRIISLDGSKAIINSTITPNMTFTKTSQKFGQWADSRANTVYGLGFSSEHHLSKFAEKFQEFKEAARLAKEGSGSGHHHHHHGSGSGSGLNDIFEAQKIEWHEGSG

B1: unnamed (peptide)
chain: TKTLLLPVVLVVFVAIVRKIISDMWGVLAKQQTHVR
B2: unnamed (peptide)
chain: GALCLMVDFILIAVSYTLILKTVPGIASKKEELKAL
B3: unnamed (peptide)
chain: MRLRNGTVATALAFITSFLTLSWYTTWQNGKEKLIA
B4: unnamed (peptide)
chain: MQRLMMLLATSGACLGLLAVAAVAAAGANPAQRDTH
B5: unnamed (peptide)
chain: PEPTVSPVNASDIHWSSSSLPDRWIILGAFILLVLM
B6: unnamed (peptide)
chain: TNVLIFFWCLAFLWGLLILLKYRWRKLEEEEQAMYE
B7: unnamed (peptide)
chain: LPLKEARLKVFNTCIPHIYVFFQFYLLAFFFIFYSQ
B8: unnamed (peptide)
chain: LPPEHSDVVIVGGGVLGLSVAYWLKKLESRRGAIRV
B9: unnamed (peptide)
chain: IWEYSVLIIVMACMEYEMGKKKCERYWAEPGEMQLE
B10: unnamed (peptide)
chain: DGETIFMYMFLAGLGPLVIVGLHQLLESRKRKRPIQ
B11: unnamed (peptide)
chain: MGTRGAVMPPPMWGLLGCCFVCAWALGGPRPIRSLP
B12: unnamed (peptide)
chain: GINMKIPPFISKGEIMNVWFHFTCLVSFSSFIYFAS
B13: unnamed (peptide)
chain: VAAIVAAVVALIYCRKKRISALPGYPECREMGETLP
B14: unnamed (peptide)
chain: TEVKASDPHSMPELPRTAKQPPVPPPRKKRISRQLA
B15: unnamed (peptide)
chain: EAASLSLSNLWFGFLLGLLCFLDNSSFKNDVKEEST
B16: unnamed (peptide)
chain: SLDNRINEVNKTILLTTLIPYLQSVIFLFVIRCLEK
B17: unnamed (peptide)
chain: QMFAKGYGKNNEPLRGYILTFLIALGFILIAELNVI
B18: unnamed (peptide)
chain: LITEIIPSTSLVIPLIGEYLLFTMIFVTLSIVITVF
B19: unnamed (peptide)
chain: VGNALGAGDMEQARKSSTVSLLITVLFAVAFSVLLL
B20: unnamed (peptide)
chain: RTGREKIFSKHVAHVLNDETQRKYIQGLKRLMTICQ
B21: unnamed (peptide)
chain: VESTKKFLKFGFLDPLFLSIILFPFLTPVFEALNVS
B22: unnamed (peptide)
chain: EHLRVIGAVGIGLACVQVFGMIFTCCLYRSLKLEHY
B23: unnamed (peptide)
chain: LVGQTQTHNKSICTTTTAFLHFFFLASFCWVLTEAW
B24: unnamed (peptide)
chain: YVGNQNLDALTGFVVAPLFTYLVIGTLFIAAGLVAL
B25: unnamed (peptide)
chain: TSGPPGEGCSGLCSWRSAPLHSGSLLYLLLSHLLPP
B26: unnamed (peptide)
chain: LKGADAGNGIRVFVPDIGMFIASLTIWLLCRNIVQK
B27: unnamed (peptide)
chain: KNSNNLIIKYISCRLLTLIIILLACIYLGYYFSLSS
B28: unnamed (peptide)
chain: MGGLRPWSRYGLLVVAHLLALGLGAVVFQALEGPPA
B29: unnamed (peptide)
chain: PPSPALPVPSGMQVPPAFLRPPSLFLRAAAAAAAAA
B30: unnamed (peptide)
chain: IYCLVLLAFATGLNQLYFYYETRAIDEPNNCKGIRC
B31: unnamed (peptide)
chain: FAQLFQYKAVFILEELLSPIVTPLILIFCLRPRALE
B32: unnamed (peptide)
chain: MRDYLATHVHSRPLLLALHGPSGVGKSHVGRLLARH
B33: unnamed (peptide)
chain: MGALGLEGRGGRLQGRGSLLLAVAGAASLVTLLLAV
B34: unnamed (peptide)
chain: EPNGSALPPTEGPPSPRNQPTTALLSLILMLGTFFI
B35: unnamed (peptide)
chain: CPLQCGIMWQLLLPTALLLLVSAGMRTEDLPKAMVV
B36: unnamed (peptide)
chain: TPTPDKSHNSGVNISTLVLSVIGSVVIVNFILSTTI
B37: unnamed (peptide)
chain: EWTSSVHQKIYTTFILVILFLLPLMVMLILYSKIGY
B38: unnamed (peptide)
chain: SVQTDDEDSAEWEQPVRRRRSRLPRHSDSGSDSKHD
B39: unnamed (peptide)
chain: QPIRIYSRASLYGPNIGRPRKNVIALLDGFMKVAGS
B40: unnamed (peptide)
chain: MVWCLGLAVLSLVISQGADGRGKPEVISVVGRAEES
B41: unnamed (peptide)
chain: MKKSGVLFLLGIILLVLIGVQGTPVVRKGRCSCIST
B42: unnamed (peptide)
chain: RFGAYLVAHKLMSFEDVLLVFSAVVFGAMAVGQVSS
B43: unnamed (peptide)
chain: SPLHSPSALPTQHASWGMLLPSRRLFRKLFWKLSSS
B44: unnamed (peptide)
chain: ILAQEEEQYLQSGDQQLTRHVLLCLLLIIGLFANLS

Target: T1, Homer1 EVH1 domain
Assay: enrichment score (AUC of log2 frequency ratio across FACS sorting rounds) (log2 AUC); higher = stronger enrichment for Homer1 EVH1 binding

How did the enrichment score turn out when B1 was run?
The enrichment score was -1.95.

B2 was tested. Which enrichment score did it give?
The enrichment score was -1.91.

B3 was tested. Which enrichment score did it give?
The enrichment score was 1.03.

Which enrichment score does the source give for B4 here?
The enrichment score was 5.22.

How did the enrichment score turn out when B5 was run?
The enrichment score was 3.36.

B6 was tested. Which enrichment score did it give?
The enrichment score was 3.1.

B7 was tested. Which enrichment score did it give?
Its enrichment score is 3.19.

For B8, which enrichment score is on record?
Its enrichment score is 0.378.

With B9 as the binder, how does the enrichment score read?
The enrichment score was 1.65.

For B10, which enrichment score is on record?
The enrichment score was 4.27.

With B11 as the binder, how does the enrichment score read?
Its enrichment score is 3.34.

With B12 as the binder, how does the enrichment score read?
Its enrichment score is 1.59.

Which enrichment score does the source give for B13 here?
Its enrichment score is 0.517.

How did the enrichment score turn out when B14 was run?
Its enrichment score is -1.36.

With B15 as the binder, how does the enrichment score read?
Its enrichment score is 3.97.

Which enrichment score does the source give for B16 here?
The enrichment score was 2.41.

With B17 as the binder, how does the enrichment score read?
The enrichment score was 0.965.

With B18 as the binder, how does the enrichment score read?
The enrichment score was 4.01.

B19 was tested. Which enrichment score did it give?
The enrichment score was 3.18.

For B20, which enrichment score is on record?
Its enrichment score is -0.0114.

How did the enrichment score turn out when B21 was run?
The enrichment score was -0.693.

With B22 as the binder, how does the enrichment score read?
The enrichment score was 0.455.

How did the enrichment score turn out when B23 was run?
The enrichment score was 2.54.

Which enrichment score does the source give for B24 here?
The enrichment score was 3.9.

With B25 as the binder, how does the enrichment score read?
The enrichment score was -3.

Which enrichment score does the source give for B26 here?
The enrichment score was 3.88.

B27 was tested. Which enrichment score did it give?
The enrichment score was 1.63.

B28 was tested. Which enrichment score did it give?
The enrichment score was 2.53.

Which enrichment score does the source give for B29 here?
Its enrichment score is 3.72.

B30 was tested. Which enrichment score did it give?
Its enrichment score is 1.31.

For B31, which enrichment score is on record?
The enrichment score was 0.412.

B32 was tested. Which enrichment score did it give?
Its enrichment score is -2.33.

Which enrichment score does the source give for B33 here?
Its enrichment score is 0.00102.

For B34, which enrichment score is on record?
The enrichment score was 0.414.

With B35 as the binder, how does the enrichment score read?
The enrichment score was 1.41.

With B36 as the binder, how does the enrichment score read?
Its enrichment score is -0.268.

For B37, which enrichment score is on record?
Its enrichment score is 5.21.

B38 was tested. Which enrichment score did it give?
The enrichment score was 1.16.

B39 was tested. Which enrichment score did it give?
Its enrichment score is 0.398.

Which enrichment score does the source give for B40 here?
Its enrichment score is -0.355.

With B41 as the binder, how does the enrichment score read?
The enrichment score was 1.95.

Which enrichment score does the source give for B42 here?
The enrichment score was 3.11.

For B43, which enrichment score is on record?
Its enrichment score is 3.16.

How did the enrichment score turn out when B44 was run?
The enrichment score was 2.85.
